# Results as given in PubChem BioAssay AID208 (DTP/NCI, 2004).
# The list is a part of this screen's results and no random one: it gathers tests that were run many times, whatever their T/C, doses with no T/C, and many T/C values between a quarter and a half above the control. Further doses and runs are listed elsewhere. T/C is the treated group as % of the vehicle group. Schedules are NCI's codes, read here as Q, the interval in days (D) or hours (H), X, the number of doses. Some T/C values carry the count of animals alive at the toxicity check (mostly the fifth day); where none is given, no animal had died by that day. Some entries hold several experiments; the results are listed from low to high. Some entries give survivors of the animals treated and no T/C: the source holds a T/C of zero for them, seemingly a mark for toxic or unscored doses. Survivors were counted at the toxicity check, usually on the fifth day, unless a day is given; later deaths do not show.
# Tested on: HT29 intrarenal xenograft, nude mice, tumor weight change
# Experiment: NCI In Vivo Anticancer Drug Screen. Data for tumor model HT29;CX-1 Human Adenocarcinoma (MER+) (intrarenal inoculation) in NU/NU BALB/C (nude) mice
# Conditions: T/C endpoint: mean tumor weight change, higher T/C = larger tumour; for T/C: evaluated on day 15
# Experimental: The antitumor activity of compounds was measured in mice bearing transplantable tumors. Survival or tumor size were measured and the results are expressed as the measurement made in the treated group (T) divided by the measurement made in the vehicle treated control group (C). The tumor model used in this assay is HT29;CX-1 Human Adenocarcinoma (MER+) (intrarenal inoculation) in NU/NU BALB/C (nude) mice
# [1] = dose: 75.0 mg/kg/injection, schedule: Q04DX004 (ip), vehicle: saline
# [2] = dose: 112.0 mg/kg/injection, schedule: Q04DX004 (ip), vehicle: saline
# [3] = dose: 600.0 mg/kg/injection, schedule: Q04DX004 (sc), vehicle: saline with Tween-80
# [4] = dose: 1200.0 mg/kg/injection, schedule: Q04DX004 (sc), vehicle: saline with Tween-80
# [5] = dose: 400.0 mg/kg/injection, schedule: Q04DX004 (sc), vehicle: saline
# [6] = dose: 300.0 mg/kg/injection, schedule: Q04DX004 (sc), vehicle: saline with Tween-80
smiles,measurement,setting,value
O=c1[nH]cc(F)c(=O)[nH]1,T/C,"dose: 50.0 mg/kg/injection, schedule: Q04DX004 (ip), vehicle: saline","9, 27, 52, 60 % of control [4 of 5 alive on day 15]"
same,T/C,[1],"21 [5 of 6 alive on day 15], 24, 35, 48 % of control"
same,survivor count,[1],3 of 6 on day 15
same,T/C,[2],16 [4 of 6 alive on day 15] and 32 % of control [5 of 6 alive on day 15]
same,survivor count,[2],"1 of 6 on day 15, 2 of 5 on day 15, 3 of 6 on day 15"
CC(=O)Oc1[nH]c(=O)c2cccc3c2c1CCC3,T/C,[3],138 % of control
same,T/C,[4],140 % of control
Nc1ccn([C@@H](C=O)O[C@@H](C=O)CO)c(=O)n1,survivor count,[5],0 of 6 on day 15
CNC1C(O)C(OC2C(N)CC(N)C(OC3OC(C(C)O)C(O)C(O)C3N)C2O)OCC1(C)O (stereo not given),T/C,"dose: 25.0 mg/kg/injection, schedule: Q04DX004 (ip), vehicle: saline",133 % of control
same,survivor count,"dose: 100.0 mg/kg/injection, schedule: Q04DX004 (ip), vehicle: saline",1 of 6 on day 15
same,survivor count,"dose: 200.0 mg/kg/injection, schedule: Q04DX004 (ip), vehicle: saline",0 of 6 on day 15
OCC1OC(n2cnc3c(=S)nc[nH]c32)C(O)C1O (stereo not given),T/C,"dose: 1200.0 mg/kg/injection, schedule: Q04DX004 (sc), vehicle: saline",149 % of control
Cc1cc2cc3cc(C)c(N)cc3nc2cc1N,T/C,[6],127 % of control
same,T/C,[4],134 % of control
CCn1cnc2c(=S)nc[nH]c21,T/C,"dose: 75.0 mg/kg/injection, schedule: Q04DX004 (sc), vehicle: saline",136 % of control
same,T/C,"dose: 300.0 mg/kg/injection, schedule: Q04DX004 (sc), vehicle: saline",136 % of control
same,survivor count,"dose: 600.0 mg/kg/injection, schedule: Q04DX004 (sc), vehicle: saline",0 of 6 on day 15
Nc1nnc[se]1,survivor count,"dose: 1600.0 mg/kg/injection, schedule: Q04DX004 (sc), vehicle: saline with Tween-80",1 of 6 on day 15
CCCCNCCCNCCCNC(=O)c1csc(-c2csc(CCNC(=O)C(NC(=O)C(C)C(O)C(C)NC(=O)C(NC(=O)c3nc(C(CC(N)=O)NCC(N)C(N)=O)nc(N)c3C)C(OC3OC(CO)C(O)C(O)C3OC3OC(CO)C(O)C(OC(N)=O)C3O)c3cnc[nH]3)C(C)O)n2)n1 (stereo not given),survivor count,"dose: 64.0 mg/kg/injection, schedule: Q01DX010 (sc), vehicle: saline",1 of 3 on day 11
CN(C)c1ccc2c(NCCCCCCNc3ccnc4cc(N(C)C)ccc34)ccnc2c1,survivor count,"dose: 300.0 mg/kg/injection, schedule: Q04DX004 (sc), vehicle: distilled water + Tween-80 + alcohol",0 of 6 on day 15
COc1cccc2c1C(=O)c1c(O)c3c(c(O)c1C2=O)C[C@@](O)(C(=O)CO)C[C@@H]3OC1CC(N2CCOCC2C#N)C(O)C(C)O1 (stereo not given in full),survivor count,"dose: 120.0 micrograms/kg/injection, schedule: Q04DX004 (ip), vehicle: saline",0 of 6 on day 15
same,survivor count,"dose: 240.0 micrograms/kg/injection, schedule: Q04DX004 (ip), vehicle: saline",0 of 6 on day 15
CN(C)c1ccc(C(=C2C=CC(=[N+](C)C)C=C2)c2ccc(N(C)C)cc2)cc1 (tested in a mixture with another compound),survivor count,[6],2 of 6 on day 15
same,survivor count,[3],0 of 6 on day 15
same,survivor count,[4],1 of 6 on day 15
O=C(C/C(=N\C(=S)Nc1cc(C(F)(F)F)ccc1Cl)NO)N1CCCC1,T/C,"dose: 2400.0 mg/kg/injection, schedule: Q04DX003 (sc), vehicle: saline with Tween-80",129 % of control
C[n+]1ccc2cc(N)c3c4ccccc4sc3c2c1,survivor count,"dose: 50.0 mg/kg/injection, schedule: Q04DX004 (sc), vehicle: saline with Tween-80",0 of 6 on day 15
same,survivor count,"dose: 100.0 mg/kg/injection, schedule: Q04DX004 (sc), vehicle: saline with Tween-80",0 of 6 on day 15
c1ccc2c(c1)-c1ccccc1C1NC21 (stereo not given),survivor count,"dose: 150.0 mg/kg/injection, schedule: Q04DX004 (sc), vehicle: saline with Tween-80",0 of 6 on day 15
same,survivor count,[6],0 of 6 on day 15
same,survivor count,[3],0 of 6 on day 15
CNC=O,survivor count,"dose: 800.0 mg/kg/injection, schedule: Q01DX010 (ip), vehicle: saline",2 of 6 on day 11
CC(C)CC(NC(=O)CF)C(=O)O (stereo not given),survivor count,"dose: 40.0 mg/kg/injection, schedule: Q04DX004 (sc), vehicle: saline",3 of 6 on day 15
same,survivor count,"dose: 80.0 mg/kg/injection, schedule: Q04DX004 (sc), vehicle: saline",0 of 6 on day 15
CCCC(=O)O.CCCC(=O)O.CCCC(=O)O.CCCC(=O)O.[Rh].[Rh],survivor count,"dose: 16.0 mg/kg/injection, schedule: Q04DX004 (sc), vehicle: suspension in saline",2 of 6 on day 15
same,survivor count,"dose: 32.0 mg/kg/injection, schedule: Q04DX004 (sc), vehicle: suspension in saline",0 of 6 on day 15
CCC1OCC(C(Cl)CCl)O1 (stereo not given),survivor count,"dose: 267.0 mg/kg/injection, schedule: Q01DX014 (sc), vehicle: other",1 of 6 on day 15
same,survivor count,"dose: 400.0 mg/kg/injection, schedule: Q01DX014 (sc), vehicle: other",0 of 6 on day 15 and 3 of 6 on day 15
same,survivor count,"dose: 600.0 mg/kg/injection, schedule: Q01DX014 (sc), vehicle: Klucel (hydroxypropylcellulose) (HPC)",2 of 5 on day 15
same,survivor count,"dose: 600.0 mg/kg/injection, schedule: Q01DX014 (sc), vehicle: other",0 of 6 on day 15
same,survivor count,"dose: 900.0 mg/kg/injection, schedule: Q01DX014 (sc), vehicle: Klucel (hydroxypropylcellulose) (HPC)",0 of 5 on day 15 and 0 of 6 on day 15
same,survivor count,"dose: 900.0 mg/kg/injection, schedule: Q01DX014 (sc), vehicle: other",0 of 5 on day 15 and 0 of 6 on day 15
CCC1=C[C@H]2CN(CCc3c([nH]c4ccccc34)[C@@](C(=O)OC)(c3cc4c(cc3OC)N(C)[C@H]3[C@@](O)(C(=O)NC)[C@H](OC(C)=O)[C@]5(CC)C=CCN6CC[C@]43[C@@H]65)C2)C1,survivor count,"dose: 4.0 mg/kg/injection, schedule: Q04DX004 (sc), vehicle: water",2 of 6 on day 15
same,survivor count,"dose: 8.0 mg/kg/injection, schedule: Q04DX004 (sc), vehicle: water",0 of 6 on day 15
[N-]=[N+]=[N-],survivor count,"dose: 24.0 mg/kg/injection, schedule: Q04DX004 (ip), vehicle: water",1 of 6 on day 15
same,survivor count,"dose: 48.0 mg/kg/injection, schedule: Q04DX004 (ip), vehicle: water",0 of 6 on day 15
CC[As](=O)(O)CC,survivor count,"dose: 200.0 mg/kg/injection, schedule: Q04DX004 (sc), vehicle: saline",1 of 4 on day 15
same,survivor count,[5],1 of 6 on day 15
same,survivor count,"dose: 800.0 mg/kg/injection, schedule: Q04DX004 (sc), vehicle: saline",0 of 6 on day 15
C[n+]1c(-c2cccc3ccccc23)c2cc(N)ccc2c2ccccc21,survivor count,"dose: 48.0 mg/kg/injection, schedule: Q04DX004 (sc), vehicle: saline",0 of 5 on day 15
same,survivor count,"dose: 96.0 mg/kg/injection, schedule: Q04DX004 (sc), vehicle: saline",0 of 6 on day 15
same,survivor count,"dose: 192.0 mg/kg/injection, schedule: Q04DX004 (sc), vehicle: saline",0 of 6 on day 15
CN(Cc1cnc2nc(N)nc(N)c2n1)c1ccc(C(=O)N[C@@H](CCC(=O)O)C(=O)O)cc1,T/C,"dose: 12.0 mg/kg/injection, schedule: Q04DX004 (ip), vehicle: sodium bicarbonate","38, 57, 64, 70, 103 % of control"
same,T/C,"dose: 18.0 mg/kg/injection, schedule: Q04DX004 (ip), vehicle: sodium bicarbonate","26, 36, 78, 79, 100 % of control"
same,T/C,"dose: 27.0 mg/kg/injection, schedule: Q04DX004 (ip), vehicle: sodium bicarbonate","13, 22, 62, 66, 68 % of control"
